Measured values taken from PubChem BioAssay AID720504 (National Center for Advancing Translational Sciences (NCATS), 2013).
The whole screen tested about 360,000 compounds, of which about 10,000 (2.8%) were called active. This list was built around the results that the source calls inconclusive (neither active nor inactive); the mix of calls is not that of the screen. The call rests on the fitted dose curve; in most records, active means well fitted inhibition curve with a large enough effect; inconclusive means small, poorly fitted or top-dose-only effect; inactive means flat fitted curve, though single readings scatter. Where the call is inconclusive, the potency comes from a doubtful curve fit.

Protein sequences, listed by entry. Tags and fused reporters are not part of them.
UniProt P53350, whole entry, looked up: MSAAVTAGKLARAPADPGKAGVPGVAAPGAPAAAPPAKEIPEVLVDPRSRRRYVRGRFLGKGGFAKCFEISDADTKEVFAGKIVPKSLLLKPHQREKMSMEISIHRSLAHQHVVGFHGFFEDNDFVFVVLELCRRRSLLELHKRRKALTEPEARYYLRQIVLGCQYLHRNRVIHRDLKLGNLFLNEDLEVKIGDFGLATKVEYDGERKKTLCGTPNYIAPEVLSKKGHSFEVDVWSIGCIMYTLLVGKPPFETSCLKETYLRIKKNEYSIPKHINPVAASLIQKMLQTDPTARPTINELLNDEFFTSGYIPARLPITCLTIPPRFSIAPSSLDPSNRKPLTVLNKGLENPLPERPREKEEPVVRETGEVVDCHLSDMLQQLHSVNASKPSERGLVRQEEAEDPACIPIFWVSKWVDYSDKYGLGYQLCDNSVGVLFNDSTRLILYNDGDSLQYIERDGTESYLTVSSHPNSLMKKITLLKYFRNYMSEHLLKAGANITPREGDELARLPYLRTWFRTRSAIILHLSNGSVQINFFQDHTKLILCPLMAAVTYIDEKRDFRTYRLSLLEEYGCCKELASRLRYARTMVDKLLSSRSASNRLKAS

What follows are compounds tested against Serine/threonine-protein kinase PLK1 (Homo sapiens) (UniProt P53350) (assay: qHTS for Inhibitors of PLK1-PDB (polo-like kinase 1 - polo-box domain): Primary Screen). Conditions: Plk1 PBD binding of FITC phosphopeptide, fluorescence polarization.
Further: nearly all actives have a fitted effect of over 65% in size.
On the % scale 0 is the no-effect control and ±100 the full control effect; potency means the concentration at half of the fitted maximal effect.
Wherever max response, negative = inhibition is given: series mostly up to about 57 µM.

Row | SMILES | max response, negative = inhibition | Potency
1 | N#Cc1ccc(C(=O)N2CCN(C(=O)C3CCCO3)CC2)cc1 (stereo not drawn) | inactive: -9.23% | –
2 | Cc1cc2cc3c(cc2nc1SCc1ccc(C(=O)O)cc1)OCCO3 | – | active: 29.9 µM
3 | CCn1c(=S)[nH]c2nc3c(cc2c1=O)CCCC3 | inactive: -0.538% | –
4 | O=C(NCc1ccccc1)c1ccc(CS(=O)Cc2cccc(Cl)c2)o1 (stereo not drawn) | inactive: -2.3% | –
5 | Cc1ccc(NC(=S)Nc2ccc(C(C)C)cc2)cc1S(=O)(=O)N1CCCCCC1 | – | inconclusive: 29.9 µM [inhibitor, partial curve]
6 | NC(=S)N/N=C/c1ccc(-c2ccc([N+](=O)[O-])cc2)o1 | – | active: 23.8 µM
7 | COc1ccccc1N1CCN(Cc2cc3c(cc2Br)OCCO3)CC1 | inactive: -14.7% | –
8 | CCOc1ccc(S(=O)(=O)Nc2ccccc2C(=O)NCc2ccco2)cc1 | inactive: -15.1% | –
9 | CCOC(=O)C1=C(C)NC(=S)NC1c1ccco1 (stereo not drawn) | – | inconclusive: 18.9 µM [inhibitor, partial curve]
10 | Cc1cccc(C)c1NC(=O)CCS(=O)(=O)c1cccc2nsnc12 | – | inconclusive: 11.9 µM [inhibitor, partial curve]
11 | CC(C)(C)NCCCCOc1ccccc1F | inactive: -12% | –
12 | CCOc1ccc(Nc2cc(C)nc(-n3nc(C)cc3C)n2)cc1 | inactive: -5.65% | –
13 | CN(C)C(=O)COC(=O)c1ccc(S(=O)(=O)NCc2ccco2)cc1 | – | active: 26.7 µM
14 | COc1ccc(S(=O)(=O)N(C(C)=O)c2ccc(OC(C)=O)c3ccccc23)cc1[N+](=O)[O-] | – | inconclusive: 6.7 µM [inhibitor, single point]
15 | O=[N+]([O-])c1ccccc1-c1ccc(C(=S)N2CCN(c3ccccc3)CC2)o1 | – | active: 23.8 µM
16 | COC(=O)/C(=C/c1cn(C(C)=O)c2ccccc12)[N+](=O)[O-] | – | inconclusive: 2.67 µM [inhibitor, partial curve, poor fit]
17 | O=C(O)c1ccc(NC(=S)NC(=O)c2ccc(-c3ccccc3)cc2)cc1 | – | inconclusive: 29.9 µM [inhibitor, partial curve]
18 | COc1ccc(S(=O)(=O)N2CCOCC2)cc1NC(=O)CSc1nc(C)c(C)c(C)n1 | – | inconclusive: 21.2 µM [inhibitor, single point]
19 | S=c1[nH]nc(-c2ccc(Cl)cc2)n1/N=C/c1ccco1 | inactive: -23.1% | –
20 | COc1cc(C(=O)N2CCC(N3CCCCCC3)CC2)cc(OC)c1OC | inactive: -1.8% | –
21 | O=C(O)c1ccccc1N=N/C(=N/Nc1cc(S(=O)(=O)O)ccc1O)c1ccccc1 | – | active: 16.8 µM
22 | CCCSCC(=O)Nc1ncc2c(n1)-c1ccccc1CC2 | – | inconclusive: 29.9 µM [inhibitor, single point]
23 | COc1ccc(OC)c(Nc2nc(NCc3ccco3)c3ccccc3n2)c1 | inactive: 0.741% | –
24 | CCOC(=O)c1c(N)sc(C(C)=O)c1C | – | active: 21.2 µM

Laid out differently: entries from further up
Row,SMILES,"max response, negative = inhibition",Potency
14,COc1ccc(S(=O)(=O)N(C(C)=O)c2ccc(OC(C)=O)c3ccccc23)cc1[N+](=O)[O-],–,"inconclusive: 6.7 µM [inhibitor, single point]"
15,O=[N+]([O-])c1ccccc1-c1ccc(C(=S)N2CCN(c3ccccc3)CC2)o1,–,active: 23.8 µM

The list continues:

Row | SMILES | max response, negative = inhibition | Potency
25 | Cc1cc(S(=O)(=O)c2ccc(Cl)cc2)nc(S(=O)(=O)c2ccc(Cl)cc2)c1C#N | – | active: 2.67 µM
26 | CCOc1cc(C(c2c(C)[nH][nH]c2=O)c2c(C)[nH][nH]c2=O)ccc1OCc1ccc([N+](=O)[O-])cc1 | – | inconclusive: 11.9 µM [inhibitor, partial curve]
27 | CCN1C(=O)C2C(C1=O)N1C(c3ccccc3)C3C(=O)N(CC)C(=O)C3N1C2c1ccccc1 (stereo not drawn) | inactive: -6.79% | –
28 | COc1ccc(CCN2C(=O)C3C4C=CC(C5CC45)C3C2=O)cc1OC (stereo not drawn) | inactive: -14.5% | –
29 | COc1ccc(-c2cc(-c3ccccc3)c(C#N)c(S(C)(=O)=O)n2)cc1 | – | inconclusive: 37.7 µM [inhibitor, single point]
30 | O=c1c2ccccc2sn1-c1ccc(Cl)cc1Cl | – | active: 2.67 µM
31 | CC(C)=CCN1CCN(Cc2nc(C(C)C)cs2)CC1CCO (stereo not drawn) | – | inconclusive: 37.7 µM [inhibitor, single point]
32 | CCCS(=O)(=O)c1c(S(=O)(=O)CCC)c2ccccn2c1C(=O)OC | – | inconclusive: 21.2 µM [inhibitor, partial curve]
33 | COc1ccccc1N1CCN(Cc2nc3ccsc3c(=O)[nH]2)CC1 | inactive: 0.744% | –
34 | O=c1[nH]c2c(s1)C(c1ccc(O)cc1)C1C3CCC(C3)C1S2 (stereo not drawn) | – | inconclusive: 23.8 µM [inhibitor, partial curve]
35 | O=C(Nc1nc(=S)ss1)c1ccc(Cl)cc1Cl | – | active: 15 µM
36 | O=C(NC(NC(=S)Nc1ccc(Cl)cc1Cl)C(Cl)(Cl)Cl)c1cccc([N+](=O)[O-])c1 (stereo not drawn) | inactive: -8.93% | –
37 | COc1ccccc1OCCNC(=O)c1cccc(S(=O)(=O)NCc2ccccc2)c1 | inactive: -2.46% | –
38 | C=CCn1c(SCC(C)=O)nc2scc(-c3ccco3)c2c1=O | inconclusive: -33.5% [inhibitor] | –
39 | COc1ccc(N(C(C)C(=O)NN=C2CCCCCCC2)S(C)(=O)=O)cc1 (stereo not drawn) | – | active: 26.7 µM
40 | CSc1ccc(CCNC(=O)CSc2ccsc2[N+](=O)[O-])cc1 | – | inconclusive: 29.9 µM [inhibitor, partial curve]
41 | CCC1(c2ccc(F)cc2)NC(=O)N(CC(=O)Nc2ccccc2C)C1=O (stereo not drawn) | – | inconclusive: 29.9 µM [inhibitor, single point]
42 | CCOC(=O)c1sc(NC(=O)CSc2n[nH]c(-c3ccccc3)n2)c(C#N)c1C | – | active: 3.77 µM
43 | c1cncc(CNc2ncn[nH]2)c1 | – | inconclusive: 23.8 µM [inhibitor, single point]
44 | N#CC1=C(N)NC(=S)C(C(N)=O)C1c1ccc(Cl)cc1Cl (stereo not drawn) | – | active: 18.9 µM
45 | O=C(CCl)Nc1cccc(S(=O)(=O)NC2=NCCC2)c1 | inactive: -14.1% | –
46 | O=c1[nH][nH]c(-c2ccccc2O)c1C(C[N+](=O)[O-])c1ccc(Br)cc1 (stereo not drawn) | – | inconclusive: 16.8 µM [inhibitor, partial curve]
47 | COc1cccc(N2CC(C(=O)Nc3nnc(SCCC4OCCO4)s3)CC2=O)c1 (stereo not drawn) | – | inconclusive: 21.2 µM [inhibitor, partial curve]
48 | Cc1cccc(NS(=O)(=O)c2ccc(C(=O)N3CCCC3)cc2)c1C | inactive: -7.53% | –
